# According to paper PMC12389442 (Pharmaceuticals, 2025):
# Assay: general procedure: Fmoc solid-phase peptide synthesis
# Settings: whole synthesis, 214 nm, TFA salt
substance,measurement,value
H2N-DRVYIHPF-COOH,final HPLC purity,97.30%
H-DRVYIHPFHL-OH,final HPLC purity,97.88%
